Data taken from the supplement of paper PMC10849652.
The list shows a part of the results.

By UniProt entry, the sequences of proteins in these tests, tags left out. Where a name states a change or a piece, a line headed by the entry shows the natural chain unless it says otherwise.
UniProt Q9BSJ6: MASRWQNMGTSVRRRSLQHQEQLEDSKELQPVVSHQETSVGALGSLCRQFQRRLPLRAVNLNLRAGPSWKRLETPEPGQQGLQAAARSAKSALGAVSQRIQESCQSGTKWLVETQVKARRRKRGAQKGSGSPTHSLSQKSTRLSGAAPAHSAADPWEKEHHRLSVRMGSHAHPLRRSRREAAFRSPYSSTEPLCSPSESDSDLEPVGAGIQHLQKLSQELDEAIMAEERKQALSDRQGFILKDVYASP
UniProt P16885: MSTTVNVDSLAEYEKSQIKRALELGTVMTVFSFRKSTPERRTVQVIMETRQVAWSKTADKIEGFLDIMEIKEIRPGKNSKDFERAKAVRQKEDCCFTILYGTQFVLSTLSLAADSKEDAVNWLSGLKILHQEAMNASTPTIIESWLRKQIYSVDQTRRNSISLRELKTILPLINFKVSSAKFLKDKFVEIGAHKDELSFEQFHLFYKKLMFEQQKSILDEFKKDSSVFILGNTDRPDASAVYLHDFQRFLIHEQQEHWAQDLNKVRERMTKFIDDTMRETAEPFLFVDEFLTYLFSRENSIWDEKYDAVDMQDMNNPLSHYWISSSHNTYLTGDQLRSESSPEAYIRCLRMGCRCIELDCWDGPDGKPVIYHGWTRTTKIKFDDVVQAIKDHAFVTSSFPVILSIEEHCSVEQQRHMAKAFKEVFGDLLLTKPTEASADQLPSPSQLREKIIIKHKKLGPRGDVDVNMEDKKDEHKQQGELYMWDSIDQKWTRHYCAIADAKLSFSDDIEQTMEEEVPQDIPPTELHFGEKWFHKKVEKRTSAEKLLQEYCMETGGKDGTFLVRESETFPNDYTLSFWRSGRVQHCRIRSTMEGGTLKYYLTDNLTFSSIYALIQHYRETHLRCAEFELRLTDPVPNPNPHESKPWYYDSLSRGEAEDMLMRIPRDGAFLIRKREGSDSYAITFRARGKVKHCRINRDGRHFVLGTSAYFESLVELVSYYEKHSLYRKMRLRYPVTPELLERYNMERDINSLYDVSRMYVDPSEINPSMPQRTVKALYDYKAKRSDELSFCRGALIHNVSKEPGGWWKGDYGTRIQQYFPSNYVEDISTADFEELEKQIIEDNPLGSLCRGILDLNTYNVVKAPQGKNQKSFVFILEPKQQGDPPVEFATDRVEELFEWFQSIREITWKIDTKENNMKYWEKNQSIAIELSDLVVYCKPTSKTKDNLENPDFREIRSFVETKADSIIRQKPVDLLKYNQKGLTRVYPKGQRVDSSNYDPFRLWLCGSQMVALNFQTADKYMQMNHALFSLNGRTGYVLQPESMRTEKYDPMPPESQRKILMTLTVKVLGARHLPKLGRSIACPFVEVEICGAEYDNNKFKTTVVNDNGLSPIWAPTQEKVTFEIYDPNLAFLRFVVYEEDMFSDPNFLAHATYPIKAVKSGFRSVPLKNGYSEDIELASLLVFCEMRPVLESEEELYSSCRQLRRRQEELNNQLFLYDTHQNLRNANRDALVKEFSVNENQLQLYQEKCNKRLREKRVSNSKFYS
UniProt Q9NRD5, whole entry, looked up: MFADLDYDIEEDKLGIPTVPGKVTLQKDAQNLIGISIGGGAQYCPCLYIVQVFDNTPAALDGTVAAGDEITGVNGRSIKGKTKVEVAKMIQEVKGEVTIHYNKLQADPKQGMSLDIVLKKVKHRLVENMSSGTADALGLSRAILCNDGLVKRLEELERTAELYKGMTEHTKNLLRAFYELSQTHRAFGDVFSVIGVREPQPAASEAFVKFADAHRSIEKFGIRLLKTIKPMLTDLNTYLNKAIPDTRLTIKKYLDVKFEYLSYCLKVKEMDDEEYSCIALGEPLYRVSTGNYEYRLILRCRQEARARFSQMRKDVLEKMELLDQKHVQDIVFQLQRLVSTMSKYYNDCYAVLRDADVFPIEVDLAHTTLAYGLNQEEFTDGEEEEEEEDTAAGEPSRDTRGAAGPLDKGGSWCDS
UniProt Q9HAU0: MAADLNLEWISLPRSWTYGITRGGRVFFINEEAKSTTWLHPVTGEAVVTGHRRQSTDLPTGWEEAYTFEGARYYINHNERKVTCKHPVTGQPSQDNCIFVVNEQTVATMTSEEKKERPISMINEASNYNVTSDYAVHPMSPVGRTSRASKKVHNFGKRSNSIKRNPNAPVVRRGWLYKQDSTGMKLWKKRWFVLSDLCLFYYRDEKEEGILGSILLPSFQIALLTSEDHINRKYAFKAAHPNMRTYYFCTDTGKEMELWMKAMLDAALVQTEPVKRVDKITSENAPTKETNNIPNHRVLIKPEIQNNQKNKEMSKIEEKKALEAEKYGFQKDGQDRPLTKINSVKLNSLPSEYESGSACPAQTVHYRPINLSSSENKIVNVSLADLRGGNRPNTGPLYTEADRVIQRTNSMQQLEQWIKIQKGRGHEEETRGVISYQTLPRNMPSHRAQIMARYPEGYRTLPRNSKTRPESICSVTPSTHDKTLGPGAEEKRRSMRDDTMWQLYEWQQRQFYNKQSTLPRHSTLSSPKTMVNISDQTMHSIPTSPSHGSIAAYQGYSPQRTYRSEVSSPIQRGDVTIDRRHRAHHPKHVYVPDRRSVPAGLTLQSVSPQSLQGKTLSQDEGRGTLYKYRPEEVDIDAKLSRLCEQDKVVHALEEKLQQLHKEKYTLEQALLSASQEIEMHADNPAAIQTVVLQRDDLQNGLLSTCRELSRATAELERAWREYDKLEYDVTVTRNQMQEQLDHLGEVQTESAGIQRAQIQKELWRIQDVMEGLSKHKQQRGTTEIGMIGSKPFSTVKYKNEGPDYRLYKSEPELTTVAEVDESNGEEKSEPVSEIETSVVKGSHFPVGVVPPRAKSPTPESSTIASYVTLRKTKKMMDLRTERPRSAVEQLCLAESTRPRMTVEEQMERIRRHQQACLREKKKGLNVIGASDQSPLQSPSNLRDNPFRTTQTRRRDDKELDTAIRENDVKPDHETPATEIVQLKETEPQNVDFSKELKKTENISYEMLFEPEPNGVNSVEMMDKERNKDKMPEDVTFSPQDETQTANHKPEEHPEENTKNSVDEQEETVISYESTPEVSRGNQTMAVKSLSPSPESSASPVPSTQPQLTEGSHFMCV
UniProt Q9C010: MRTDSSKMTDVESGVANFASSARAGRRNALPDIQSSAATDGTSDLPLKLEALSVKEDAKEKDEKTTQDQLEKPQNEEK
UniProt Q9Y2B9: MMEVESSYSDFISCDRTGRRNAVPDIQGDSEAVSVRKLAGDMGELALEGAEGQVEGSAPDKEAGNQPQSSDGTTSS
UniProt O75925, whole entry, looked up: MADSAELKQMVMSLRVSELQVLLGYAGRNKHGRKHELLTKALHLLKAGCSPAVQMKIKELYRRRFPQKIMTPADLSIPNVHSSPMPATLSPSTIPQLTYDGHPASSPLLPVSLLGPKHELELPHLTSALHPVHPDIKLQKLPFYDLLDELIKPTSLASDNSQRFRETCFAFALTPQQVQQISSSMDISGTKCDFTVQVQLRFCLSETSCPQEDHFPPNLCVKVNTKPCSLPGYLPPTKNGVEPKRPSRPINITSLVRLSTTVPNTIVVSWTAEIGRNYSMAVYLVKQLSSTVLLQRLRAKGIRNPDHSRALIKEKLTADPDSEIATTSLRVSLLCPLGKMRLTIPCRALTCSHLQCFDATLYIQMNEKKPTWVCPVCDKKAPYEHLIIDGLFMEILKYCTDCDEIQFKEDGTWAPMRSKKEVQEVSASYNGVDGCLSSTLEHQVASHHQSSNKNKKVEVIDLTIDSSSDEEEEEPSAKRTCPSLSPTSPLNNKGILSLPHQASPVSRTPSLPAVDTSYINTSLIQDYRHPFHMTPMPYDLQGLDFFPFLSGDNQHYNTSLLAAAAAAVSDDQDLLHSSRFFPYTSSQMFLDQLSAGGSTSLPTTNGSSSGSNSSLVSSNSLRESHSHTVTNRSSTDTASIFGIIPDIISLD
UniProt Q9UBF8: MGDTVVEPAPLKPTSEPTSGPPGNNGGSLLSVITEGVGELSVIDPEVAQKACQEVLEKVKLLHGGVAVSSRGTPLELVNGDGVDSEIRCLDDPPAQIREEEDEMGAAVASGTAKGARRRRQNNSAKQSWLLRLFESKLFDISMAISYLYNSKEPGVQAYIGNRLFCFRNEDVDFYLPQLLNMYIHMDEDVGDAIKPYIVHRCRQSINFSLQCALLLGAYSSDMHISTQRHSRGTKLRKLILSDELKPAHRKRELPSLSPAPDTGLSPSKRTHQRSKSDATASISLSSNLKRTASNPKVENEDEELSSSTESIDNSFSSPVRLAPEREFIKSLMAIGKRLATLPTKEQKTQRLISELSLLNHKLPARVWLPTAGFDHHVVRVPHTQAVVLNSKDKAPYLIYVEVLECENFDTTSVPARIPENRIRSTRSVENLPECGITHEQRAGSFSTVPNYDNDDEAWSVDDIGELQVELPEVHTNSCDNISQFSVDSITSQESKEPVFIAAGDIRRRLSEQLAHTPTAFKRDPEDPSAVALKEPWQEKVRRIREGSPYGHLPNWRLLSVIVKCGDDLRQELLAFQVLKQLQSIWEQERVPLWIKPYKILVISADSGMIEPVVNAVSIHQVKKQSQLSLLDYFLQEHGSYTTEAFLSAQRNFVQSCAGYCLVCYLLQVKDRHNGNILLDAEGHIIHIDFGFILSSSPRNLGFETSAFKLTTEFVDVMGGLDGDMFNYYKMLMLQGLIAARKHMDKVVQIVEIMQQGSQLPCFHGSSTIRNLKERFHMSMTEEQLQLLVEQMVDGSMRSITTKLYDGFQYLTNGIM
UniProt Q15111: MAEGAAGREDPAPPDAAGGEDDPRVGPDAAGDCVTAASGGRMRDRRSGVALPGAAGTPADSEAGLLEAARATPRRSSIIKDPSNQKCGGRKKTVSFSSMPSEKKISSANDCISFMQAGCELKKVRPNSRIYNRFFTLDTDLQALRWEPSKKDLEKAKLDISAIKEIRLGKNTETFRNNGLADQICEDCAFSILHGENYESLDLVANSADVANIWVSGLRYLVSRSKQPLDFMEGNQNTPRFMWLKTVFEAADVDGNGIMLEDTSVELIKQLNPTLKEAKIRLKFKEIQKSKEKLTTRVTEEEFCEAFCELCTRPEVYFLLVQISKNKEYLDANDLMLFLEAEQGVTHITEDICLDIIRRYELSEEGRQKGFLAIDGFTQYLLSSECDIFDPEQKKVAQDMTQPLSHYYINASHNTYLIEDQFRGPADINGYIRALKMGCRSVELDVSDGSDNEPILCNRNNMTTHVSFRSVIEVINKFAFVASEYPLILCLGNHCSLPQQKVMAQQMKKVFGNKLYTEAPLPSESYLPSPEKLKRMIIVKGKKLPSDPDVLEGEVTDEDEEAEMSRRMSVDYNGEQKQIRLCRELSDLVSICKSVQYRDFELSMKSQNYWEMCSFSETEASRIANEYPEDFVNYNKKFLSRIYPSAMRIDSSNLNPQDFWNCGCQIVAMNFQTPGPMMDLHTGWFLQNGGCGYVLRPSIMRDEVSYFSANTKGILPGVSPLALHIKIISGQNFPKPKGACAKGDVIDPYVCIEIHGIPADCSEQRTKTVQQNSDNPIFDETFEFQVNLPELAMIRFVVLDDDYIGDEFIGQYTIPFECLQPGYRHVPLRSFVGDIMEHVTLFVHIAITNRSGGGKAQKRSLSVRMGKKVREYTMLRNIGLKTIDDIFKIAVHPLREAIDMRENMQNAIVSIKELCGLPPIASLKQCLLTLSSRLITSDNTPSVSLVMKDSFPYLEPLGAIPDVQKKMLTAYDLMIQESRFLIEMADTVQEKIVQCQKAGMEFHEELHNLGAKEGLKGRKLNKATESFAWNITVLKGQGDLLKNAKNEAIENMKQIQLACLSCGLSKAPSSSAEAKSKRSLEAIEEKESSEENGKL
UniProt Q8N4B1: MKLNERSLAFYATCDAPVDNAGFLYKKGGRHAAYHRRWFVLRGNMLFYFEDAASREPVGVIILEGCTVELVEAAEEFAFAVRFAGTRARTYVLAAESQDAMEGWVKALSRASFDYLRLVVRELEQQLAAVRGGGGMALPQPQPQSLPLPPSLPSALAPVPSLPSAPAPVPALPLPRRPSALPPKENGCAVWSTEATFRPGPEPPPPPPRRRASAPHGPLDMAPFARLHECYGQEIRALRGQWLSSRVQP
UniProt P36871: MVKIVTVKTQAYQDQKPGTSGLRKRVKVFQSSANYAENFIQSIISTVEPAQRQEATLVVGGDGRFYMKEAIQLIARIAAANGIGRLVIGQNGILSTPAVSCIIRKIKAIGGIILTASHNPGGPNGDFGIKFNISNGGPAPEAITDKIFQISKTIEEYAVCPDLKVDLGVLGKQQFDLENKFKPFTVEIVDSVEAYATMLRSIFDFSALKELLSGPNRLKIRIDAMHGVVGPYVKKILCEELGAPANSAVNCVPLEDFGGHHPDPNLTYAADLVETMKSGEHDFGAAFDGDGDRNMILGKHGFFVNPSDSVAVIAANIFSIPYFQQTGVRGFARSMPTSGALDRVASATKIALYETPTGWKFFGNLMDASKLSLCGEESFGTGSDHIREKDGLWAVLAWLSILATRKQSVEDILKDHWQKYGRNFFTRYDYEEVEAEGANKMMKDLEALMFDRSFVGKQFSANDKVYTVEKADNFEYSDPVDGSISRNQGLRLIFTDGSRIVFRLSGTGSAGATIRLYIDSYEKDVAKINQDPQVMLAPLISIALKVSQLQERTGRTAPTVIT

Experiments:
Experiment in all cases: log2 fold change, soluble protein after heating vs DMSO (PISA); higher = thermal stabilisation; K562 cells, 10 uM, 30 min; active = over 0.2 and 3.5 SD of the protein, either way, in both replicates (recomputed)
[1] = compound: CNC(=O)C1=CC=CC=C1NC2=NC(=NC=C2Cl)NC3=C(C=C(C=C3)N4CCOCC4)OC
In short: (§1)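 Thermal stability values are relative to control samples and come from duplicates. They are expressed as log2 fold changes. For measurement, K562 cells (2×10^6 cells/mL) received 10 μM compound for 30 min, and aliquots were heated for 3 min over 48°C-58°C, pooled, and extracted at 4°C in PBS with 0.5% NP-40. Soluble protein, the supernatant after 21,000xg for 90 min, was quantified by TMTpro 16plex LC-MS/MS with equalised channel sums.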

rucaparib = compound: CNCc1ccc(-c2[nH]c3cc(F)cc4c3c2CCNC4=O)cc1 [rucaparib]
In short: as §1

encorafenib = compound: COC(=O)N[C@@H](C)CNc1nccc(-c2cn(C(C)C)nc2-c2cc(Cl)cc(NS(C)(=O)=O)c2F)n1 [encorafenib]
In short: as §1

alvocidib = compound: CN1CC[C@H](c2c(O)cc(O)c3c(=O)cc(-c4ccccc4Cl)oc23)[C@H](O)C1 [alvocidib]
In short: as §1

zotarolimus = compound: CO[C@H]1C[C@@H]2CC[C@@H](C)[C@@](O)(O2)C(=O)C(=O)N2CCCC[C@H]2C(=O)O[C@H]([C@H](C)C[C@@H]2CC[C@H](n3cnnn3)[C@H](OC)C2)CC(=O)[C@H](C)/C=C(\C)[C@@H](O)[C@@H](OC)C(=O)[C@H](C)C[C@H](C)/C=C/C=C/C=C/1C [zotarolimus]
In short: as §1

idasanutlin = compound: COc1cc(C(=O)O)ccc1NC(=O)[C@@H]1N[C@@H](CC(C)(C)C)[C@](C#N)(c2ccc(Cl)cc2F)[C@H]1c1cccc(Cl)c1F [idasanutlin]
In short: as §1

saracatinib = compound: CN1CCN(CCOc2cc(OC3CCOCC3)c3c(Nc4c(Cl)ccc5c4OCO5)ncnc3c2)CC1 [saracatinib]
In short: as §1

[2] = compound: CNc1nc(-c2ccc3c(N)n[nH]c3c2)cc(N2C[C@@H](C(=O)NC3CCCCC3)CC[C@H]2C)n1
In short: as §1

pictilisib = compound: CS(=O)(=O)N1CCN(Cc2cc3nc(-c4cccc5[nH]ncc45)nc(N4CCOCC4)c3s2)CC1 [pictilisib]
In short: as §1

sotrastaurin = compound: CN1CCN(c2nc(C3=C(c4c[nH]c5ccccc45)C(=O)NC3=O)c3ccccc3n2)CC1 [sotrastaurin]
In short: as §1

[3] = compound: COC1=CC=C(C=C1)CN2C=CC3=C2C=C(C=C3)C(=O)NO
In short: as §1

filanesib = compound: CON(C)C(=O)N1N=C(c2cc(F)ccc2F)S[C@@]1(CCCN)c1ccccc1 [filanesib]
In short: as §1

alisertib = compound: COc1cc(Nc2ncc3c(n2)-c2ccc(Cl)cc2C(c2c(F)cccc2OC)=NC3)ccc1C(=O)O [alisertib]
In short: as §1

[4] = compound: COc1cc2nc(-c3cc(F)ccc3O)nc(N[C@@H]3CNC[C@H]3C(C)(C)O)c2cc1OC
In short: as §1

gefitinib = compound: COc1cc2ncnc(Nc3ccc(F)c(Cl)c3)c2cc1OCCCN1CCOCC1 [gefitinib]
In short: as §1

[5] = compound: COc1cccc2cc(-c3nc([C@H]4CC[C@H](C(=O)O)CC4)n4ncnc(N)c34)[nH]c12
In short: as §1

lapatinib = compound: CS(=O)(=O)CCNCc1ccc(-c2ccc3ncnc(Nc4ccc(OCc5cccc(F)c5)c(Cl)c4)c3c2)o1 [lapatinib]
In short: as §1

defactinib = compound: CNC(=O)c1ccc(Nc2ncc(C(F)(F)F)c(NCc3nccnc3N(C)S(C)(=O)=O)n2)cc1 [defactinib]
In short: as §1

[6] = compound: COC(=O)[C@H](CCSC)NC(=O)C1=C(C=C(C=C1)NC[C@H](CS)N)C2=CC=CC=C2
In short: as §1

Tubastatin A = compound: CN1CCc2c(c3ccccc3n2Cc2ccc(C(=O)NO)cc2)C1 [Tubastatin A]
In short: as §1

Measured: log2 fold change

PKP4 (UniProt Q99569)
inactive: [1] 0.049 | rucaparib 0.151 | encorafenib -0.137

PLAUR (UniProt Q03405)
inactive: alvocidib 0.045 | zotarolimus -0.047 | idasanutlin 0.041

PKNOX1 (UniProt P55347)
inactive: saracatinib -0.044 | [1] 0.069 | [2] 0.081 | idasanutlin 0.104

PIMREG (UniProt Q9BSJ6)
inactive: rucaparib -0.201 | encorafenib 0.158 | pictilisib 0.029

Fetched one by one from above (2):
PKP4 (UniProt Q99569)
inactive: [1] 0.049 | rucaparib 0.151 | encorafenib -0.137

PKNOX1 (UniProt P55347)
inactive: saracatinib -0.044 | [1] 0.069 | [2] 0.081 | idasanutlin 0.104

Continued.

PHC3 isoform 7 (UniProt Q8NDX5)
inactive: sotrastaurin -0.071 | [1] -0.007 | rucaparib -0.276 | encorafenib 0.154 | [3] 0.287 | filanesib -0.029 | zotarolimus 0.001 | alisertib -0.121 | [4] -0.03 | gefitinib -0.153 | [5] 0.203 | lapatinib 0.05

PLCG2 (UniProt P16885)
inactive: [1] -0.039 | rucaparib -0.209 | encorafenib -0.02 | idasanutlin -0.074

PKN3 (UniProt Q6P5Z2)
inactive: sotrastaurin 0.107 | filanesib -0.038

PLD6 (UniProt Q8N2A8)
inactive: sotrastaurin 0.048 | defactinib 0.033 | [6] 0.09 | [3] 0.129 | filanesib 0.133 | [4] 0.125 | lapatinib -0.001

PHRF1 (UniProt Q9P1Y6)
inactive: [1] -0.022 | alisertib -0.001 | [4] 0.049 | [5] -0.121 | lapatinib 0.194

PIGO (UniProt Q8TEQ8)
inactive: alvocidib 0.135 | Tubastatin A -0.028 | [1] -0.054 | defactinib -0.025 | [6] -0.031 | [3] -0.035 | zotarolimus 0.017 | alisertib -0.056 | gefitinib -0.036 | [5] 0.003

PKMYT1 (UniProt Q99640)
inactive: sotrastaurin -0.227 | [1] -0.077 | rucaparib 0.261 | encorafenib 0.045 | filanesib 0.057

PICK1 (UniProt Q9NRD5)
inactive: sotrastaurin 0.171 | filanesib 0.104 | alisertib -0.549 | gefitinib 0.199 | [5] -0.203

PFN1 (UniProt I3L3D5)
inactive: sotrastaurin 0.156 | alvocidib 0.153 | Tubastatin A -0.151 | [1] -0.162 | rucaparib 0.131 | encorafenib -0.141 | [3] -0.527 | filanesib 0.169 | zotarolimus 0.001 | idasanutlin 0.006 | alisertib 0.274 | [4] 0.194 | [5] 0.118 | lapatinib -0.215 | pictilisib 0.511

PLEKHA5 isoform 6 (UniProt Q9HAU0)
inactive: alvocidib 0.045 | Tubastatin A 0.115 | [1] -0.227 | defactinib 0.161 | rucaparib 0.707 | encorafenib 0.378 | [6] -0.027 | zotarolimus 0.059 | idasanutlin 0.031 | alisertib -0.318 | [5] -0.29 | pictilisib 0.172

PIK3CA (UniProt P42336)
inactive: sotrastaurin -0.204 | alvocidib -0.101 | [1] -0.042 | filanesib -0.016 | zotarolimus 0.167 | idasanutlin 0.014 | alisertib 0.103 | [5] -0.228

PKIB isoform 2 (UniProt Q9C010)
inactive: [1] 0.032 | rucaparib -0.112 | encorafenib 0.082 | alisertib -0.172 | [4] -0.133 | [5] -0.089 | lapatinib 0 | pictilisib 0.083

PKIG (UniProt Q9Y2B9)
inactive: alisertib 0.251 | [5] 0.057

PIAS1 isoform 2 (UniProt O75925)
inactive: [3] 0.046 | [4] 0.172 | lapatinib 0.016

PI4KB isoform 2 (UniProt Q9UBF8)
inactive: [1] -0.276 | rucaparib -0.077 | encorafenib 0.013 | pictilisib 0.007

PLCL1 (UniProt Q15111)
inactive: sotrastaurin 0.032 | Tubastatin A 0.166 | [1] -0.131 | defactinib -0.02 | rucaparib 0.2 | encorafenib 0.018 | [6] 0.047 | [3] 0.048 | filanesib -0.036 | zotarolimus 0.09 | idasanutlin 0.062 | alisertib -0.107 | gefitinib 0.118 | [5] 0.229 | pictilisib -0.073

PKHD1 (UniProt P08F94)
inactive: defactinib 0.03 | rucaparib 0.039 | encorafenib -0.034 | [6] -0.072 | idasanutlin -0.04

PIM1 isoform 2 (UniProt P11309)
inactive: alisertib 0.267 | [5] -0.327 | pictilisib -0.126

PHETA1 isoform 4 (UniProt Q8N4B1)
inactive: saracatinib 0.133 | [2] -0.111 | idasanutlin 0.187 | [4] -0.099 | lapatinib 0.015 | pictilisib -0.005

PIK3C2A (UniProt O00443)
inactive: sotrastaurin -0.151 | [1] -0.005 | [3] 0.088 | filanesib -0.02 | alisertib -0.076 | gefitinib -0.003 | [5] 0.017

PGD (UniProt K7EM49)
inactive: defactinib 0.116 | [6] 0.066 | [3] -0.24 | [4] 0.271 | lapatinib -0.078 | pictilisib 0.334

PIAS4 (UniProt Q8N2W9)
inactive: saracatinib -0.207 | Tubastatin A -0.057 | [2] -0.043 | [3] 0.049 | alisertib -0.566 | [4] 0.069 | [5] -0.167 | lapatinib -0.017 | pictilisib -0.257

PFKM (UniProt F8VTQ3)
inactive: [3] 0.147 | [4] -0.165 | lapatinib 0.095 | pictilisib 0.193

PLEK (UniProt P08567)
inactive: [1] 0.111 | defactinib 0.16 | [6] -0.065 | [3] -0.095 | [4] -0.208 | lapatinib -0.239

Reprinted from the entries so far (2 entries):
PHC3 isoform 7 (UniProt Q8NDX5)
inactive: sotrastaurin -0.071 | [1] -0.007 | rucaparib -0.276 | encorafenib 0.154 | [3] 0.287 | filanesib -0.029 | zotarolimus 0.001 | alisertib -0.121 | [4] -0.03 | gefitinib -0.153 | [5] 0.203 | lapatinib 0.05

PLCG2 (UniProt P16885)
inactive: [1] -0.039 | rucaparib -0.209 | encorafenib -0.02 | idasanutlin -0.074

Carrying on:

PGM1 isoform 2 (UniProt P36871)
inactive: saracatinib 0.048 | [1] -0.285 | [2] -0.15
